Results deposited as PubChem BioAssay AID1224826 (NIAID, 2016).
Shown is one part, drawn at random, of about 17,000 deposited reagents. Of all reagents, about 1,110 (6.6%) are marked active. 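Active means lowered or raised reporter signal; replicate intensities are raw and not normalised per plate.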 Not all columns of the deposit are shown.

Screen: 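Regulators of Tlr4 signalling leading to Tnf-alpha expression in macrophages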 (primary screen)
Cell system: RAW264.7 G9 macrophages from mouse bearing reporters for p65 (GFP) and the Tnf promoter (mCherry)
Reagent: siRNA pool against mouse genes, 100 nM
Duration: 16 h of LPS stimulation, after 2 days of siRNA transfection
Conditions: bacterial lipopolysaccharide (Salmonella minnesota R595), 10 ng/ml
Measurement: 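Imaged Tnf reporter mCherry in nuclei, minus background, normalised per plate to the median and expressed as robust z-scores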
Reading the numbers: Tnf reporter robust z-score: higher = stronger Tnf promoter reporter signal after LPS
Rule for the call: 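Called active when robust z-score is at most -1.3, matching the median of the Tlr4 knock-down control, or over 3; control wells and wells with under 50 cells never active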
Meaning of the calls: active = Tnf reporter clearly lowered or raised; inactive = no clear change in Tnf reporter

Against Or8b44 (olfactory receptor family 8 subfamily B member 44) the deposit lists Tnf reporter robust z-score -0.88; fewer than 50 cells in well enough cells in well; inactive. Gopc (golgi associated PDZ and coiled-coil motif containing) scored Tnf reporter robust z-score 0.13; fewer than 50 cells in well enough cells in well; inactive. Knock-down of Fxr1 (FMR1 autosomal homolog 1) resulted in: Tnf reporter robust z-score 1.4; fewer than 50 cells in well enough cells in well; inactive. Krt25 (keratin 25) scored Tnf reporter robust z-score -0.11; fewer than 50 cells in well enough cells in well; inactive. Reep1 (receptor accessory protein 1) scored fewer than 50 cells in well fewer than 50 cells per well; well left out of calls; inactive. Silencing of Asf1a (anti-silencing function 1A histone chaperone) resulted in: Tnf reporter robust z-score -0.59; fewer than 50 cells in well enough cells in well; inactive.

For Rab35 (RAB35, member RAS oncogene family), the values are Tnf reporter robust z-score -0.12; fewer than 50 cells in well enough cells in well; inactive. With knock-down of Bcl2l2 (BCL2-like 2), the screen gave Tnf reporter robust z-score 0.21; fewer than 50 cells in well enough cells in well; inactive. Ctsz (cathepsin Z) showed Tnf reporter robust z-score 0.29; fewer than 50 cells in well enough cells in well; inactive. With knock-down of Clec4b1 (C-type lectin domain family 4, member b1), the record shows fewer than 50 cells in well fewer than 50 cells per well; well left out of calls; inactive. Against Arpc2 (actin related protein 2/3 complex, subunit 2) the deposit lists Tnf reporter robust z-score -0.23; fewer than 50 cells in well enough cells in well; inactive. Knock-down of Prp15 (retired record) resulted in: Tnf reporter robust z-score -0.52; fewer than 50 cells in well enough cells in well; inactive.

Dnaaf10 (dynein axonemal assembly factor 10) scored Tnf reporter robust z-score 0.04; fewer than 50 cells in well enough cells in well; inactive. Against Ugt3a1 (UDP glycosyltransferases 3 family, polypeptide A1), the values are Tnf reporter robust z-score 1; fewer than 50 cells in well enough cells in well; inactive.
